Entries after “also recorded” stand apart in the source; their conditions may differ. For at least one compound, name, drawing or mass did not settle the structure.
Tested on: B16F10
Assay: B16F10 model: B16-GM vaccine plus Celebrex
Assay type: in vivo, mice
Procedure: FIGS. 9A and 9B illustrate the results of a study in the B16F10 melanoma model wherein the effect of a cytokine-expressing cellular vaccine was evaluated in combination with Celebrex (Celecoxib: 50 mg/kg/day in the feed starting on Day −7). Mice were challenged on Day 0 with 1×10^5 live B16F10 cells at a dorsal location and were vaccinated on Day 3 with 1×10^6 irradiated dB16gmtd cells at a ventral location.

In the case of Cc1ccc(-c2cc(C(F)(F)F)nn2-c2ccc(S(N)(=O)=O)cc2)cc1 [Celebrex, Celecoxib], the “potency of the vaccine” value (Celebrex 50 mg/kg/day in feed from Day -7, 10 days before the vaccine) is reported as “increased the potency of the vaccine significantly” and the “efficacy relative to vaccine alone” value (Celebrex administered on the day of vaccine) is reported as “no enhancement was observed; also recorded: added efficacy was observed”.

— patent publication US20120034242A1, “CYTOKINE-EXPRESSING CELLULAR VACCINE COMBINATIONS” (BIOSANTE PHARMACEUTICALS, INC., priority 2003, published 2012)
